Measurements as given in patent US20140296479A1, “D-APTIDE AND RETRO-INVERSO APTIDE WITH MAINTAINED TARGET AFFINITY AND IMPROVED STABILITY” (GWANGJU INSTITUTE OF SCIENCE AND TECHNOLOGY, priority 2011, published 2014).
Results are given in words; binding and its absence hold for the method and conditions named. Some results given as binding are weak or reduced against the parent protein; the word gives no strength.

The chains behind the UniProt entries cited, without tags or fusion partners. Residues count along the entry.
UniProt P02751, residues 1266-1356: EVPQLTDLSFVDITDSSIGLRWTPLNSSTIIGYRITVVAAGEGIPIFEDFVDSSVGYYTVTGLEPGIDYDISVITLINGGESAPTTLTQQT

Target: T1, fibronectin EDB (UniProt P02751 1266-1356, limits assumed, biotin (site not stated))
T1 construct: domain: EDB; Biotin-EDB, 2000 RU, immobilised on a streptavidin SA chip; also called Biotin-EDB; fibronectin extra domain B (ED-B)
Test: SPR, BIAcore X

B1: L-Aptide1EDB (designed binder)
peptide: HCSSAVGSWTWENGKWTWKGIIRLEQ
notes: Synthetic 26-mer, all L-amino acids; also called Aptide1EDB (L-form)
binding: binds
